Assay results taken from publication PMC9749938, “Alkyltriphenylphosphonium turns naphthoquinoneimidazoles into potent membrane depolarizers against mycobacteria” (RSC Medicinal Chemistry, 2022).

System: Vero E6 cells
Assay: Cytotoxicity on Vero E6 cells
Format: cell-based, African green monkey
Settings: selectivity index, should be ≥10

Row | SMILES | SI (IC50 Vero/MIC50 M. bovis BCG)
1 | Cc1nc2c(n1CCC[P+](c1ccccc1)(c1ccccc1)c1ccccc1)C(=O)c1ccccc1C2=O.[I-] [Compound 3] | > 100
2 | Cc1nc2c(n1CCCCC[P+](c1ccccc1)(c1ccccc1)c1ccccc1)C(=O)c1ccccc1C2=O.[I-] [Compound 4] | > 166.67
3 | Cc1nc2c(n1CCCCCCC[P+](c1ccccc1)(c1ccccc1)c1ccccc1)C(=O)c1ccccc1C2=O.[I-] [Compound 5] | 40.3
4 | Cc1nc2ccccc2n1CCCCCCC[P+](c1ccccc1)(c1ccccc1)c1ccccc1.[I-] [Compound 10] | 22.7
5 | Cc1nc2ccccc2n1CCCCCCCCCCC[P+](c1ccccc1)(c1ccccc1)c1ccccc1.[I-] [Compound 11] | 12.78
6 | Cc1cc(=O)n(CCCCCCC[P+](c2ccccc2)(c2ccccc2)c2ccccc2)c2c1C(=O)c1ccccc1C2=O.[I-] [Compound 12] | 5.9
7 | Cc1cc(=O)n(CCCCCCCCCCC[P+](c2ccccc2)(c2ccccc2)c2ccccc2)c2c1C(=O)c1ccccc1C2=O.[I-] [Compound 13] | 0.6
8 | O=C1c2ccccc2C(=O)c2c1nc(C(F)(F)F)n2CCCCCCCCCCC[P+](c1ccccc1)(c1ccccc1)c1ccccc1.[I-] [Compound 14] | 3.12
9 | Cc1nc2c(n1CCCCCCCCCCC[P+](c1ccccc1)(c1ccccc1)c1ccccc1)C(=O)c1cccnc1C2=O.[I-] [Compound 15] | 9.0
10 | Cc1nc2c(n1CCCCCCC[P+](C1CCCCC1)(C1CCCCC1)C1CCCCC1)C(=O)c1ccccc1C2=O.[I-] [Compound 17] | 18.8
11 | CCCCCC[P+](CCCCCC)(CCCCCC)CCCCCCCn1c(C)nc2c1C(=O)c1ccccc1C2=O.[I-] [Compound 19] | 7.5
